Values from PubChem BioAssay AID504808 (Drosophila RNAi Screening Center, 2011)
The deposit covers about 21,000 reagents; below is a random part of those that have a named target and a result. In the full data, 18 (0.084%) were called active. 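Raw counts without plate normalisation, one of two replicates; the ratio scores behind the calls were not deposited.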 Reagent sequences are not shown. Not stated in the record: the amount of reagent, the time to read-out.

Test: 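Chromatin factors that keep E2F targets switched off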 (primary screen)
Cells: Drosophila S2 cells
Reagents: long dsRNA against Drosophila genes
Measured: 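Dual luciferase plate measurements; E2F-specific signal taken as firefly over Renilla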
Scale: E2F firefly: higher = more E2F reporter activity; Renilla normaliser: higher = more normaliser reporter signal
Hit rule: 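a knock-down counted as active when the firefly/Renilla E2F signal rose above 50%, a threshold chosen arbitrarily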

gene knocked down	amplicon	E2F firefly, rep 1	Renilla normaliser, rep 1	Outcome
Vps4 (GeneID 32777)	DRSC19338	1.42e5	6235	inactive
tra2 (GeneID 36619)	DRSC07708	2718	222	inactive
Ciz1 (GeneID 39161)	DRSC09675	1.07e5	7452	inactive
CG6738 (GeneID 42732)	DRSC16104	99202	5626	inactive
Edem2 (GeneID 34714)	DRSC02877	92814	3791	inactive
CG17361 (GeneID 39548)	DRSC10266	1.58e5	7488	inactive
Rrp4 (GeneID 37731)	DRSC04434	74883	3754	inactive
lva (GeneID 31350)	DRSC18403	2031	1032	inactive
CR14798 (GeneID 31126)	DRSC17956	73997	4162	inactive
CG31482 (GeneID 40806)	DRSC12582	1.38e5	7265	inactive
Nhe3 (GeneID 33939)	DRSC03380	1.48e5	4947	inactive
CG6163 (GeneID 39274)	DRSC10595	1.42e5	7573	inactive
hiro (GeneID 38083)	DRSC08564	90045	3437	inactive
Prx6c (GeneID 36098)	DRSC06080	1.60e5	5126	inactive
Aplip1 (GeneID 53472)	DRSC07947	1.52e5	1996	inactive
Aplip1 (GeneID 53472)	DRSC08697	98694	4233	inactive
CG6125 (GeneID 41882)	DRSC15970	1.01e5	5247	inactive
CG32459 (GeneID 40502)	DRSC11852	1.50e5	7604	inactive
Ppcs (GeneID 42295)	DRSC14127	72281	3834	inactive
Mrp4 (GeneID 41387)	DRSC14931	1.45e5	6754	inactive
ND-51 (GeneID 33852)	DRSC03145	79231	3485	inactive
Tob (GeneID 32574)	DRSC20294	8082	680	inactive
Rpn13R (GeneID 31433)	DRSC18404	46325	3391	inactive
CG15717 (GeneID 32262)	DRSC19684	1.06e5	6426	inactive
CG32700 (GeneID 31896)	DRSC17857	1.20e5	5180	inactive
CG32700 (GeneID 31896)	DRSC17858	1.24e5	5941	inactive
en (GeneID 36240)	DRSC07609	1.01e5	4380	inactive
eas (GeneID 32585)	DRSC20329	1.47e5	6004	inactive
MED26 (GeneID 43816)	DRSC17126	68161	3003	inactive
MED26 (GeneID 43816)	DRSC17147	25926	3327	inactive
MED26 (GeneID 43816)	DRSC17148	1096	808	inactive
C901 (GeneID 32032)	DRSC19351	1.26e5	5765	inactive
CG11251 (GeneID 39490)	DRSC09825	1.27e5	6445	inactive
aqz (GeneID 41058)	DRSC16570	1.19e5	7298	inactive
CG17834 (GeneID 34191)	DRSC02637	69520	3132	inactive
CG2533 (GeneID 32110)	DRSC19855	71898	4183	inactive
RhoGAP71E (GeneID 39693)	DRSC10232	69904	3416	inactive
RhoGAP71E (GeneID 39693)	DRSC10837	1.08e5	5153	inactive
RhoGAP71E (GeneID 39693)	DRSC10838	71132	3424	inactive
Mccc2 (GeneID 59261)	DRSC04987	89361	3973	inactive
CG14238 (GeneID 43195)	DRSC14732	1.01e5	7032	inactive
Gr93c (GeneID 117471)	DRSC14587	1.38e5	6051	inactive
CG8517 (GeneID 37268)	DRSC07205	1.60e5	5389	inactive
GstD9 (GeneID 41502)	DRSC14185	1.47e5	6834	inactive
CG13407 (GeneID 42599)	DRSC14583	1.51e5	7555	inactive
shot (GeneID 36542)	DRSC05459	1.12e5	5833	inactive
shot (GeneID 36542)	DRSC05460	1.34e5	5321	inactive
shot (GeneID 36542)	DRSC07682	2765	219	inactive
GstE1 (GeneID 37106)	DRSC07437	1.55e5	5103	inactive
CG9021 (GeneID 33818)	DRSC03128	78649	3825	inactive
CG9636 (GeneID 40967)	DRSC16529	78233	3859	inactive
RpS15 (GeneID 36851)	DRSC07151	94027	5223	inactive
Pi4KIIIalpha (GeneID 31247)	DRSC18655	1.18e5	5843	inactive
abd-A (GeneID 42037)	DRSC13179	72124	2557	inactive
abd-A (GeneID 42037)	DRSC16897	46108	3670	inactive
CG18493 (GeneID 42319)	DRSC15334	1.31e5	6020	inactive
CG3436 (GeneID 33180)	DRSC00605	69705	3391	inactive
mRpL51 (GeneID 34186)	DRSC02200	85031	3558	inactive
Dfd (GeneID 40832)	DRSC12593	1.57e5	7533	inactive
Vps8 (GeneID 38735)	DRSC09705	85397	3868	inactive
p47 (GeneID 35674)	DRSC06046	79355	3653	inactive
CG4691 (GeneID 34856)	DRSC01950	88934	4094	inactive
Cdk4 (GeneID 36854)	DRSC07358	30697	158	inactive
CG31380 (GeneID 318701)	DRSC15688	1.30e5	5377	inactive
CG4004 (GeneID 32226)	DRSC19791	8196	684	inactive
CG4004 (GeneID 32226)	DRSC19882	1.53e5	6986	inactive
Srg1 (GeneID 42969)	DRSC14640	1.10e5	5448	inactive
CG11885 (GeneID 33215)	DRSC00329	59470	3874	inactive
Cpr65Ay (GeneID 5740348)	DRSC08796	1.33e5	4466	inactive
metro (GeneID 36176)	DRSC06341	2994	206	inactive
metro (GeneID 36176)	DRSC06725	94227	3824	inactive
CG12974 (GeneID 40350)	DRSC11684	1.38e5	7214	inactive
CG8939 (GeneID 32568)	DRSC20127	7019	844	inactive
Cpr12A (GeneID 32309)	DRSC19722	1.36e5	5984	inactive
CG10657 (GeneID 39423)	DRSC09768	71468	3672	inactive
Ir60d (GeneID 7354402)	DRSC04218	1.09e5	4733	inactive
CG8028 (GeneID 32923)	DRSC20075	1.34e5	6666	inactive
Treh (GeneID 45368)	DRSC04548	73242	3131	inactive
iotaTry (GeneID 36223)	DRSC07634	89088	4136	inactive
CG3868 (GeneID 39580)	DRSC10380	81415	3694	inactive
HmgZ (GeneID 37480)	DRSC03888	1.01e5	3785	inactive
HmgZ (GeneID 37480)	DRSC04620	1.01e5	4180	inactive
CG1092 (GeneID 40538)	DRSC12151	69997	3668	inactive
gry (GeneID 38391)	DRSC08028	1.30e5	4259	inactive
gry (GeneID 38391)	DRSC08518	79289	3021	inactive
jus (GeneID 43453)	DRSC14861	83446	4045	inactive
jus (GeneID 43453)	DRSC14862	1.24e5	7113	inactive
CG5107 (GeneID 43084)	DRSC15716	1830	1140	inactive
scat (GeneID 47942)	DRSC02722	91823	3960	inactive
CG3999 (GeneID 41253)	DRSC15534	1.47e5	6176	inactive
CG11570 (GeneID 39357)	DRSC09844	1.21e5	6803	inactive
Rab19 (GeneID 38930)	DRSC11260	99856	3744	inactive
Acp62F (GeneID 38340)	DRSC08136	1.09e5	4406	inactive
ymp (GeneID 43088)	DRSC13720	1.01e5	2848	inactive
ymp (GeneID 43088)	DRSC14482	1.02e5	5213	inactive
CG6244 (GeneID 2768962)	DRSC10609	1.63e5	7359	inactive
CG10597 (GeneID 32714)	DRSC19357	2.36e5	6248	inactive
Charon (GeneID 33303)	DRSC00679	80334	3834	inactive
CG12112 (GeneID 31794)	DRSC17809	7643	696	inactive
CG12209 (GeneID 36077)	DRSC06119	1.41e5	4506	inactive
CG14102 (GeneID 40156)	DRSC10103	1.38e5	8382	inactive
CG6686 (GeneID 34608)	DRSC02979	67207	204	inactive
Rab11 (GeneID 42501)	DRSC16809	1.06e5	6178	inactive
Nup62 (GeneID 36830)	DRSC06970	76111	3186	inactive
Fdh (GeneID 41311)	DRSC16670	73083	3558	inactive
CG6983 (GeneID 38964)	DRSC10757	80085	3813	inactive
CG7328 (GeneID 40204)	DRSC10812	1.38e5	6493	inactive

In a second layout: entries from further up
| gene knocked down | amplicon | E2F firefly, rep 1 | Renilla normaliser, rep 1 | Outcome |
| --- | --- | --- | --- | --- |
| aqz (GeneID 41058) | DRSC16570 | 1.19e5 | 7298 | inactive |
| CG17834 (GeneID 34191) | DRSC02637 | 69520 | 3132 | inactive |
| CG2533 (GeneID 32110) | DRSC19855 | 71898 | 4183 | inactive |
| RhoGAP71E (GeneID 39693) | DRSC10232 | 69904 | 3416 | inactive |
| RhoGAP71E (GeneID 39693) | DRSC10837 | 1.08e5 | 5153 | inactive |
